Measurements as given in the supplement of paper PMC10849652.
The list shows a part of the results.

Amino acid sequences for entries named in this document (tags omitted). A change or cut given only in a name is not applied to a line headed by its entry.
UniProt Q15291, whole entry, looked up: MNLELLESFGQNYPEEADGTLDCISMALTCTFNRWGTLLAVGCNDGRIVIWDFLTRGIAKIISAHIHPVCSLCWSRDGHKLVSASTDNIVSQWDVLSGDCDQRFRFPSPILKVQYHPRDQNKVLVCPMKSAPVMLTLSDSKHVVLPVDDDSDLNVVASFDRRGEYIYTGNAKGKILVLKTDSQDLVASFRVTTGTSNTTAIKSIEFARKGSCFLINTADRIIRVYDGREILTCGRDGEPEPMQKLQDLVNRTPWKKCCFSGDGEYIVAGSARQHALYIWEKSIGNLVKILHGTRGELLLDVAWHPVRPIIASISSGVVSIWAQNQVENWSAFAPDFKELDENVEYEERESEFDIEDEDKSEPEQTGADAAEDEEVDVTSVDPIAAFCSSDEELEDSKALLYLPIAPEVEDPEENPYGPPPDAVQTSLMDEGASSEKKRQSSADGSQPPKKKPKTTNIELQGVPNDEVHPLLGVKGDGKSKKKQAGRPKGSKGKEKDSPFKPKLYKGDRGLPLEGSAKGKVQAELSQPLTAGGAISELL
UniProt Q06609, whole entry, looked up: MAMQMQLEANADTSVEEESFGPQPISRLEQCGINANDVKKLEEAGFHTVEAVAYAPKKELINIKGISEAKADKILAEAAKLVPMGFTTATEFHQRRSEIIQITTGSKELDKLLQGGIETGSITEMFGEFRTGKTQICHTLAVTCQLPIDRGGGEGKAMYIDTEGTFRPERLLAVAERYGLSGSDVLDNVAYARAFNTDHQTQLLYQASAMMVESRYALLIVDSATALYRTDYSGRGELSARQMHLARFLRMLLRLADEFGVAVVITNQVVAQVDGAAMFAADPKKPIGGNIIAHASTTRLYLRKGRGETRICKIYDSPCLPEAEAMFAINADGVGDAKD
UniProt P20936: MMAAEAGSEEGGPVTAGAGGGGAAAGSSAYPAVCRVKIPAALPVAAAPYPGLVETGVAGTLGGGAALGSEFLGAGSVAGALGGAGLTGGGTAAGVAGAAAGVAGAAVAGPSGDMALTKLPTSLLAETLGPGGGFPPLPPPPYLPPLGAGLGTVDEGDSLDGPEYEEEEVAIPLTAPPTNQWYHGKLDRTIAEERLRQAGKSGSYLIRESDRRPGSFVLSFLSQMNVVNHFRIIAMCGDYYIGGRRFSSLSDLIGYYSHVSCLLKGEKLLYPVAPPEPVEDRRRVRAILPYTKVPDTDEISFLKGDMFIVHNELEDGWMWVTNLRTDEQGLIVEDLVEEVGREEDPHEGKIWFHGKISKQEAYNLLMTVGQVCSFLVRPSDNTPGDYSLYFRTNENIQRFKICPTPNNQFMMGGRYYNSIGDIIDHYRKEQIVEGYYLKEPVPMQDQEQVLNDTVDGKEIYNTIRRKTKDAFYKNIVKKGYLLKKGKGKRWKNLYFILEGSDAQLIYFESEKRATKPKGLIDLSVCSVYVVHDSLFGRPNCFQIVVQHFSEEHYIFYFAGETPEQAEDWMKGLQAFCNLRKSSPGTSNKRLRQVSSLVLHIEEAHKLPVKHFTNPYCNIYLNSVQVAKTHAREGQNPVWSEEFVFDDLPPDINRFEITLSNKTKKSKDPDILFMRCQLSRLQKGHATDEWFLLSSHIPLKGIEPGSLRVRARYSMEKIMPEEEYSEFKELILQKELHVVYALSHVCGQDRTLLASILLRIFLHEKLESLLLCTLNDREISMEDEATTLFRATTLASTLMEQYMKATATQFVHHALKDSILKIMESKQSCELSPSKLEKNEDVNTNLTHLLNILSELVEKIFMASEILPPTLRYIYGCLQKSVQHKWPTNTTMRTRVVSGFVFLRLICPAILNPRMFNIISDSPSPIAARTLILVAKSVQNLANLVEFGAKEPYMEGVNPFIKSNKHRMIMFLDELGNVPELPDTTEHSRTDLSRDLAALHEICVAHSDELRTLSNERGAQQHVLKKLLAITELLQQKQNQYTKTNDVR
UniProt Q6WKZ4: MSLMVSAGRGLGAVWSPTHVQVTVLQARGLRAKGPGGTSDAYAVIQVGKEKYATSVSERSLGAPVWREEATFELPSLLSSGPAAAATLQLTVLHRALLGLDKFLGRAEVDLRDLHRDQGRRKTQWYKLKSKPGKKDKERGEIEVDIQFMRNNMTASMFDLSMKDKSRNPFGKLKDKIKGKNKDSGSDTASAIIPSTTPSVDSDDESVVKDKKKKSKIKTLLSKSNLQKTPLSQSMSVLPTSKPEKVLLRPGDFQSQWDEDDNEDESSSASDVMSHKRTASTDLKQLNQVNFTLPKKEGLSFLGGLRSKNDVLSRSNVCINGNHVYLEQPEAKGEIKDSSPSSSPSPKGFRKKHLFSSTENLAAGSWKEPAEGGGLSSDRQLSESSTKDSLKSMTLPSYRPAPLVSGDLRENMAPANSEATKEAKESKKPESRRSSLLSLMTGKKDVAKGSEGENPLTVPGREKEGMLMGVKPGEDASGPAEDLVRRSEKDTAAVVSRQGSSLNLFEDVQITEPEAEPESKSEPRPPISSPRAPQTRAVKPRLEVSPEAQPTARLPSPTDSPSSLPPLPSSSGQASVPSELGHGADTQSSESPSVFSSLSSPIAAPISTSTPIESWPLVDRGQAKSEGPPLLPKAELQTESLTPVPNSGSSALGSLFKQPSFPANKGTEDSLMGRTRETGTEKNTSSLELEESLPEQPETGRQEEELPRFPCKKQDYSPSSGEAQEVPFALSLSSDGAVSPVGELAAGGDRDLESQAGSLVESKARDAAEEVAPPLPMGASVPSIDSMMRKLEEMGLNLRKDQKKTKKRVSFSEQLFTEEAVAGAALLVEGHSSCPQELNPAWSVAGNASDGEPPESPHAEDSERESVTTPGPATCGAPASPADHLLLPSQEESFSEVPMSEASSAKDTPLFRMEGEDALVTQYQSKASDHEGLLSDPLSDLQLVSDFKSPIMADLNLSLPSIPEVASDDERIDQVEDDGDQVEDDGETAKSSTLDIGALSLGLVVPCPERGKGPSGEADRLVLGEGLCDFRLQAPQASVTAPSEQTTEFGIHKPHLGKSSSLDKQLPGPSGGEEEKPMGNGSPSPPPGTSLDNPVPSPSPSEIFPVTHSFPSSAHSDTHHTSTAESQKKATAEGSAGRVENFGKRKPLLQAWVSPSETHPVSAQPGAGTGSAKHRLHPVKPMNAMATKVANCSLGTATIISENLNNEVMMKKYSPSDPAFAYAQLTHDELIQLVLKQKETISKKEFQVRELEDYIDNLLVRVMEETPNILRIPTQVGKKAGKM
UniProt Q9H2M9: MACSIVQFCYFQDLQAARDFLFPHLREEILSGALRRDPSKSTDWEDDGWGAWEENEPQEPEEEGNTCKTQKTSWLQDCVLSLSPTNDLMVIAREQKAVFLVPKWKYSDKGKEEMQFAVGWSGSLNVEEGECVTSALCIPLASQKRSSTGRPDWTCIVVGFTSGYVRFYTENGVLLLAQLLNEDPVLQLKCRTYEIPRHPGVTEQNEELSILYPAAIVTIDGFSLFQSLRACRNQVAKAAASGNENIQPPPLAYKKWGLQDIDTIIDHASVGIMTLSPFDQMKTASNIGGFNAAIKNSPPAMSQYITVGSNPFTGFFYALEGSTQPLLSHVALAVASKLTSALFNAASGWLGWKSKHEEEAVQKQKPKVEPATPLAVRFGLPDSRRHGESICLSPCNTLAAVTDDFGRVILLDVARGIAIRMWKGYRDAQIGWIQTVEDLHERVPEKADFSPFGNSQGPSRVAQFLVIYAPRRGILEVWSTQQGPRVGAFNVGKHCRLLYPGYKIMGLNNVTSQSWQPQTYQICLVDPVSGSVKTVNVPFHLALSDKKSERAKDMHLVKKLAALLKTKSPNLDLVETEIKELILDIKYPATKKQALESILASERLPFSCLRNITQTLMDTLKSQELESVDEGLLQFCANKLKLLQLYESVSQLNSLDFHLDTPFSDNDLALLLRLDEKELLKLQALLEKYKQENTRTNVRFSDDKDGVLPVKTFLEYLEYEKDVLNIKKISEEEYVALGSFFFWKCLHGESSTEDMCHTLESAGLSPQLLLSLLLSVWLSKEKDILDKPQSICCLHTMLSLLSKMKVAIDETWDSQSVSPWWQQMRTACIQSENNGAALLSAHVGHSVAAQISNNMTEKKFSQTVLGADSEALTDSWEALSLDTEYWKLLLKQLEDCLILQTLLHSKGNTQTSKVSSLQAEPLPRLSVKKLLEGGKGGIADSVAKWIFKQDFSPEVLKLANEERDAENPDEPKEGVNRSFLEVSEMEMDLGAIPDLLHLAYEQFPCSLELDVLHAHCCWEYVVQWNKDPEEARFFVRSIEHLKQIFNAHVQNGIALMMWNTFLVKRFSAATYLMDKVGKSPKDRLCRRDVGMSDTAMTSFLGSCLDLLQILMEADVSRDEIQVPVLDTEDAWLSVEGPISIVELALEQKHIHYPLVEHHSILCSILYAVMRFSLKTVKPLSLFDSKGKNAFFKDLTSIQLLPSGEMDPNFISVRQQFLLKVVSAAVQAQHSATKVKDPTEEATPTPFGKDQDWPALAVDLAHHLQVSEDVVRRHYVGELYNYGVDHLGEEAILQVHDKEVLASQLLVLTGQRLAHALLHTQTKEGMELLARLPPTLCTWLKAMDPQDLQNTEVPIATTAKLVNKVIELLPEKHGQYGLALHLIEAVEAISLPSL
UniProt O75884: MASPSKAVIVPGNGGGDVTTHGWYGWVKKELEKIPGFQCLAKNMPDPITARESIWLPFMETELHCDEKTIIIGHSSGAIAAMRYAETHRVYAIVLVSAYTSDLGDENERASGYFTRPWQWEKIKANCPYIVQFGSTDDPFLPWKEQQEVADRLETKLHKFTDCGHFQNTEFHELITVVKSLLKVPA
UniProt Q9BXF6: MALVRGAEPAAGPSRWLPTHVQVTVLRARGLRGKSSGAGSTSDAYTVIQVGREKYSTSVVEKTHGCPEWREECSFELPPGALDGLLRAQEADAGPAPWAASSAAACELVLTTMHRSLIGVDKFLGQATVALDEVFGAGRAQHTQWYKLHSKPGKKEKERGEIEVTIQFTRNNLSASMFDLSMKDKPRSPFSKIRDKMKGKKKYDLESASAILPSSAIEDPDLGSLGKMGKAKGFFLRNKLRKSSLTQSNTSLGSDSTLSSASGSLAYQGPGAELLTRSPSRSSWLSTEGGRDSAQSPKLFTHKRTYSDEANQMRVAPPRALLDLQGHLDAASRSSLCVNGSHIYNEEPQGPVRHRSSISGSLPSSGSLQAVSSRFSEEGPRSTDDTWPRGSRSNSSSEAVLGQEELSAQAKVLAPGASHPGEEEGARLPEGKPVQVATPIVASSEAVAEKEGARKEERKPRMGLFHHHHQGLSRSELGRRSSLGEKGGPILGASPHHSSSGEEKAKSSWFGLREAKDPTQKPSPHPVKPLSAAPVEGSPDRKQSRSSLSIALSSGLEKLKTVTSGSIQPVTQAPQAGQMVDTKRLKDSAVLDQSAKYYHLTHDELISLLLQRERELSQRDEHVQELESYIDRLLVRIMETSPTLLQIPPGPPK
UniProt Q86WH2: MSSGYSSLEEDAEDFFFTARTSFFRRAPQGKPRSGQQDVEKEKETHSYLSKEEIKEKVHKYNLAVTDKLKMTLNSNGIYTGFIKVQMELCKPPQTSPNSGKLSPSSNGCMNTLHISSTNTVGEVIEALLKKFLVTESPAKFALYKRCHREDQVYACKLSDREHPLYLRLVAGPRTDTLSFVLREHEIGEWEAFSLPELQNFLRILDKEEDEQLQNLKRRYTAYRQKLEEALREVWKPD
UniProt Q9HD47: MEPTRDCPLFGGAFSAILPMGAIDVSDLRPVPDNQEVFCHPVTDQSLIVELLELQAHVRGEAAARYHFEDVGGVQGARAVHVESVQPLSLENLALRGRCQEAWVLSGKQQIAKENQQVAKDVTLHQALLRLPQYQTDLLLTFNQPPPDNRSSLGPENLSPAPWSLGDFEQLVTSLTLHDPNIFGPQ
UniProt Q96PK6: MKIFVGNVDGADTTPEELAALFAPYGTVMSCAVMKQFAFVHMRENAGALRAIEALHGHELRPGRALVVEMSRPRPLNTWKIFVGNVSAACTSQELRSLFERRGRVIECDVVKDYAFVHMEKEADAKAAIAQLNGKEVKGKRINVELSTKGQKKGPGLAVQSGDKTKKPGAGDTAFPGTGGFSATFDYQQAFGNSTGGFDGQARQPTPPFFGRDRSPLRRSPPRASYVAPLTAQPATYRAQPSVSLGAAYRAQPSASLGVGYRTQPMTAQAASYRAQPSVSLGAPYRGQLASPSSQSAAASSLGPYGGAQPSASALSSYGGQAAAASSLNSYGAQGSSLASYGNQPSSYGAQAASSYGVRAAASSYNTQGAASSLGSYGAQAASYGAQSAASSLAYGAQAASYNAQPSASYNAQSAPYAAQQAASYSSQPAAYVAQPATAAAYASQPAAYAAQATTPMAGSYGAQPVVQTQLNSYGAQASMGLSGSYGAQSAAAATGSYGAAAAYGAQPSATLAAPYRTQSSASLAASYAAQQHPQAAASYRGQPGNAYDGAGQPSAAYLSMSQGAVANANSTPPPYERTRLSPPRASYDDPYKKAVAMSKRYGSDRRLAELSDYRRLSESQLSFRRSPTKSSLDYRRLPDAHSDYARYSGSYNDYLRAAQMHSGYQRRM

Columns and labels:
Assay in all cases: log2 fold change, soluble protein after heating vs DMSO (PISA); higher = thermal stabilisation; K562 cells, 10 uM, 30 min; active = over 0.2 and 3.5 SD of the protein, either way, in both replicates (recomputed)
[1] = compound: CC1=C(C=C(C=C1)NC(=O)C2=CC(=CC=C2)C(C)(C)C#N)NC3=CC4=C(C=C3)N=CN(C4=O)C
How it was run: (§1)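 Aliquots of K562 cells (2×10^6 cells/mL) treated with 10 μM compound for 30 min were heated for 3 min over 48°C-58°C. After pooling and extraction in PBS with 0.5% NP-40 at 4°C, soluble protein from a 21,000xg, 90 min spin was quantified by TMTpro 16plex LC-MS/MS with channel sums equalised. Thermal stability is expressed against control samples, from duplicates, as a log2 fold change.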

[2] = compound: CC1=C(C=C(C=C1)NC(=O)C2=CC(=CC=C2)N(C)C)NC(=O)C3=CC=C(C=C3)O
How it was run: as §1

[3] = compound: CC1=CC=C(C=C1)SC2=C3C=C(SC3=CN=C2)C(=O)N
How it was run: as §1

Nexturastat A = compound: CCCCN(Cc1ccc(C(=O)NO)cc1)C(=O)Nc1ccccc1 [Nexturastat A]
How it was run: as §1

vemurafenib = compound: CCCS(=O)(=O)Nc1ccc(F)c(C(=O)c2c[nH]c3ncc(-c4ccc(Cl)cc4)cc23)c1F [vemurafenib]
How it was run: as §1

[4] = compound: CCCS(=O)(=O)Nc1ccc(F)c(C(=O)c2c[nH]c3ncc(Cl)cc23)c1F
How it was run: as §1

[5] = compound: CCCc1cc(C)[nH]c(=O)c1CNC(=O)c1cc(-c2ccnc(N3CCN(C)CC3)c2)cc2c1cnn2C(C)C
How it was run: as §1

givinostat = compound: CCN(CC)Cc1ccc2cc(COC(=O)Nc3ccc(C(=O)NO)cc3)ccc2c1 [givinostat]
How it was run: as §1

barasertib = compound: CCN(CCCOc1ccc2c(Nc3cc(CC(=O)Nc4cccc(F)c4)[nH]n3)ncnc2c1)CCOP(=O)(O)O [barasertib]
How it was run: as §1

[6] = compound: CC[C@@H]1C(=O)N(C)c2cnc(Nc3ccc(C(=O)NC4CCN(C)CC4)cc3OC)nc2N1C1CCCC1
How it was run: as §1

volasertib = compound: CC[C@@H]1C(=O)N(C)c2cnc(Nc3ccc(C(=O)N[C@H]4CC[C@H](N5CCN(CC6CC6)CC5)CC4)cc3OC)nc2N1C(C)C [volasertib]
How it was run: as §1

[7] = compound: CC[C@H](C)N1C=C(C2=C(C=C(C=C21)C3=CN=C(C=C3)N4CCNCC4)C(=O)NCC5=C(C=C(NC5=O)C)C)C
How it was run: as §1

epoxomicin = compound: CC[C@H](C)[C@@H](C(=O)N[C@@H]([C@@H](C)O)C(=O)N[C@@H](CC(C)C)C(=O)[C@]1(CO1)C)NC(=O)[C@H]([C@@H](C)CC)N(C)C(=O)C [epoxomicin]
How it was run: as §1

[8] = compound: CCn1c(C(=O)N(C2CC2)C2CC2)cc2c3c(ncn3C)c(Nc3cc(C)n(C)n3)nc21
How it was run: as §1

[9] = compound: CCn1cc(-c2ccnc3[nH]c(-c4cccc(CN(C)C)c4)cc23)c(-c2ccc(NC(=O)N(C)C)cc2)n1
How it was run: as §1

[10] = compound: CN(C)CC(=O)Nc1ccc2[nH]c(=O)c3ccccc3c2c1
How it was run: as §1

rosiglitazone = compound: CN(CCOC1=CC=C(C=C1)C[C@H]2C(=O)NC(=O)S2)C3=CC=CC=N3 (racemic) [rosiglitazone]
How it was run: as §1

[11] = compound: CN1CCC(CNc2ccc3ncc(-c4cccc(OC(F)(F)F)c4)n3n2)CC1
How it was run: as §1

[12] = compound: CC1=NC(=CC=C1)C2=C(N=C(N2)C(C)(C)C)C3=CC4=NC=CN=C4C=C3
How it was run: as §1

[13] = compound: CN1C2=C(C3=C1C(=O)N(N=C3)CC4=CC(=CC=C4)N)SC(=C2)S(=O)C
How it was run: as §1

Measured: log2 fold change

RBBP5 isoform 2 (UniProt Q15291)
inactive: [1] 0.025 | [2] -0.05 | [3] -0.074 | Nexturastat A -0.018 | vemurafenib 0.092 | [4] -0.004 | [5] -0.056 | givinostat -0.144 | barasertib -0.023 | [6] -0.09 | volasertib -0.107 | [7] -0.166 | epoxomicin -0.232 | [8] 0.005 | [9] -0.185 | [10] -0.152 | rosiglitazone 0.147 | [11] 0.085

RBM25 (UniProt P49756)
inactive: [1] -0.032 | [2] 0.017 | [3] -0.007 | [12] -0.074 | Nexturastat A 0.02 | vemurafenib 0.019 | [4] 0 | [5] -0.093 | givinostat 0.202 | barasertib 0.035 | [6] 0.024 | volasertib -0.239 | [7] -0.019 | epoxomicin 0.015 | [9] 0.074 | [10] 0.041 | [13] 0.086 | [11] -0.07

RAPGEF2, A0A2R8YGD3
inactive: [1] -0.014 | [2] 0.085 | [3] 0.019 | [12] -0.031 | Nexturastat A 0.035 | vemurafenib -0.138 | [4] -0.05 | [5] -0.153 | givinostat -0.022 | barasertib -0.037 | volasertib -0.041 | epoxomicin 0.058 | [8] -0.028 | [9] 0.031 | [10] -0.105 | rosiglitazone 0.028 | [13] 0.012 | [11] -0.114

2 records picked at random from those above:
RBBP5 isoform 2 (UniProt Q15291)
inactive: [1] 0.025 | [2] -0.05 | [3] -0.074 | Nexturastat A -0.018 | vemurafenib 0.092 | [4] -0.004 | [5] -0.056 | givinostat -0.144 | barasertib -0.023 | [6] -0.09 | volasertib -0.107 | [7] -0.166 | epoxomicin -0.232 | [8] 0.005 | [9] -0.185 | [10] -0.152 | rosiglitazone 0.147 | [11] 0.085

RBM25 (UniProt P49756)
inactive: [1] -0.032 | [2] 0.017 | [3] -0.007 | [12] -0.074 | Nexturastat A 0.02 | vemurafenib 0.019 | [4] 0 | [5] -0.093 | givinostat 0.202 | barasertib 0.035 | [6] 0.024 | volasertib -0.239 | [7] -0.019 | epoxomicin 0.015 | [9] 0.074 | [10] 0.041 | [13] 0.086 | [11] -0.07

Additional entries follow:

RAVER1 (UniProt E9PAU2)
inactive: [1] 0.144 | [2] -0.075 | [3] -0.025 | [12] 0.144 | Nexturastat A -0.046 | vemurafenib -0.1 | [4] 0.067 | [5] 0.293 | givinostat 0.131 | barasertib 0.099 | [6] -0.222 | [7] 0.13 | epoxomicin 0.147 | [9] -0.006 | [10] 0.174 | [13] -0.007 | [11] -0.375
active: volasertib -1.93

RAD51 (UniProt Q06609)
inactive: [1] -0.012 | [2] -0.017 | [3] -0.042 | [12] -0.052 | Nexturastat A 0.001 | vemurafenib 0.02 | [4] -0.048 | [5] 0.032 | givinostat 0.179 | barasertib 0.016 | [6] 0.013 | volasertib 0.113 | [7] 0.026 | epoxomicin 0.157 | [9] -0.011 | [10] -0.024 | [13] -0.075 | [11] 0.051

RBM28 (UniProt Q9NW13)
inactive: [1] -0.023 | [2] 0.022 | [3] 0.095 | Nexturastat A 0.409 | [4] 0.295 | [5] 0.101 | givinostat 0.302 | barasertib 0.086 | [6] 0.059 | volasertib -0.06 | epoxomicin -0.096 | [8] 0.117 | rosiglitazone -0.271

RASA1 (UniProt P20936)
inactive: [1] -0.107 | [2] 0.003 | [3] 0.014 | [12] -0.105 | Nexturastat A -0.178 | vemurafenib 0.021 | [4] -0.011 | [5] 0.056 | givinostat 0.025 | [6] 0.109 | volasertib -0.173 | [7] 0.069 | epoxomicin -0.065 | [8] 0.006 | [10] -0.067 | [13] -0.077

RACK1 (UniProt D6RF23)
inactive: [1] 0 | [2] 0 | [3] -0.241 | [12] -0.149 | Nexturastat A -0.138 | vemurafenib -0.108 | [4] -0.343 | [5] -0.808 | givinostat -0.063 | barasertib 0.02 | [6] 0.282 | volasertib 0.184 | epoxomicin -0.083 | [8] 0.02 | [9] 0.069 | [10] -0.03 | rosiglitazone 0.116 | [13] 0.035 | [11] -0.113

RAB11FIP1 (UniProt Q6WKZ4)
active: [11] -0.373
inactive: [1] -0.009 | [2] 0.001 | [3] 0.015 | [12] -0.018 | Nexturastat A 0.034 | vemurafenib 0.006 | [4] 0.063 | [5] 0.009 | givinostat 0.015 | barasertib 0.014 | [6] -0.07 | volasertib -0.105 | [7] 0.023 | epoxomicin 0.122 | [9] -0.063 | [10] 0.021 | [13] -0.017

RAD50, A0A494C0Y7
inactive: [1] -0.005 | [2] -0.03 | [3] -0.063 | [12] -0.041 | vemurafenib 0.045 | [4] 0 | [5] -0.244 | barasertib -0.171 | [6] 0.077 | volasertib -0.109 | [9] 0.033 | [10] 0.055 | [13] 0.097 | [11] 0.04

RBM27 (UniProt Q9P2N5)
inactive: [1] 0.031 | [2] -0.008 | [3] 0.01 | [12] -0.018 | Nexturastat A 0.025 | vemurafenib -0.008 | [4] 0.09 | [5] 0.041 | givinostat 0.013 | barasertib 0.009 | [6] -0.141 | [7] 0.014 | epoxomicin 0.014 | [9] 0.001 | [10] 0.027 | [13] -0.013 | [11] -0.068
active: volasertib -0.296

RAPGEF5, A0A590UJR0
inactive: [1] -0.068 | [2] 0.094 | [3] 0.399 | [12] 0.041 | vemurafenib -0.428 | [4] -0.517 | [5] -0.036 | givinostat -0.017 | barasertib 0.084 | [6] 0.024 | volasertib -0.66 | [7] -0.029 | [8] -0.101 | [9] -0.09 | [10] -0.207 | rosiglitazone 0.104 | [13] 0.163 | [11] -0.039

RAB3GAP2 (UniProt Q9H2M9)
inactive: [1] -0.001 | [2] -0.018 | [3] 0.017 | [12] -0.029 | Nexturastat A 0.215 | vemurafenib 0.06 | [4] 0.026 | [5] 0.092 | givinostat 0.106 | barasertib 0.068 | [6] -0.101 | volasertib -0.358 | [7] 0.044 | epoxomicin 0.022 | [9] 0.088 | [10] 0.04 | [13] 0.133 | [11] -0.132

RBBP9 (UniProt O75884)
inactive: [1] 0.07 | Nexturastat A 0.012 | vemurafenib 0.178 | [5] -0.371 | epoxomicin -0.017 | [10] -0.197

RAB11FIP5 (UniProt Q9BXF6)
inactive: [2] 0 | [3] 0.027 | [4] -0.089 | volasertib -0.167

RAD17 (UniProt O75943)
inactive: [12] -0.015 | [13] 0.196

RASSF3 (UniProt Q86WH2)
inactive: [2] 0.002 | [3] -0.032 | vemurafenib -0.066 | [4] -0.042 | [5] 0.035 | givinostat 0.057 | barasertib 0.016 | [6] -0.055 | volasertib -0.014 | [7] 0.005 | [8] -0.062 | [9] 0.051 | [10] -0.072 | rosiglitazone 0.045 | [11] 0.273

RANGRF (UniProt Q9HD47)
inactive: [6] 0.003

RAP1B (UniProt F5GZG1)
inactive: [1] -0.171 | [3] -0.048 | [12] -0.029 | Nexturastat A 0.006 | vemurafenib -0.029 | [4] -0.227 | [5] -0.105 | givinostat 0.139 | barasertib 0.039 | [6] 0.102 | volasertib 0.095 | [7] -0.213 | epoxomicin -0.032 | [8] -0.078 | [10] 0.024 | rosiglitazone 0.019 | [13] -0.046

RBM14 (UniProt Q96PK6)
inactive: [2] 0.011 | [3] -0.1 | [12] -0.078 | vemurafenib 0.132 | [4] 0.299 | [5] 0.041 | givinostat 0.178 | barasertib 0.094 | [6] 0.054 | volasertib -0.128 | [8] -0.178 | [9] 0.043 | [10] -0.099 | rosiglitazone -0.057 | [13] 0.1 | [11] 0.108
